# Assay results published in US20030109529A1, “Use of s-triazines for treating Apicomplexan parasitic infections” (priority 1999, published 2003).
# At least one structure is not confirmed: it was looked up by name or label, or the drawing left a doubt.
# Experiments:
# Assay type in all cases: cell-based, Saccharomyces cerevisiae
# Conditions in all cases: 48 hours of treatment
# wild type yeast = assay: Yeast assay for antifolate activity, wild type yeast
# [1] = test system: yeast transfected but not sensitive to antifolate antimalarials (folate insensitive); assay: Yeast assay for antifolate activity, folate insensitive yeast
# Protocol: (§1) We have established a in vitro yeast assay model for determining sensitivity to antifolate anti-malarials.
# (§2) Saccharomyces cerevisiae was grown in culture and after 48 hours of treatment as described below the growth of the yeast was determined. Control (i.e., yeast grown with no treatment) is considered to be 100% growth. Drug treatment was then related to the controls as a percent of control growth. S. cerevisiae types tested included wild type yeast, yeast made sensitive to antifolate antimalarials by transfecting yeast with malarial dihydrofolate reductase (folate sensitive or folate sen), yeast transfected but not sensitive to antifolate antimalarials (folate insensitive or folate insen).
# [2] = test system: yeast transfected with malarial dihydrofolate reductase (folate sensitive); assay: Yeast assay for antifolate activity, folate sensitive yeast
# Protocol: as §1, §2
structure (smiles),measurement,setting,value
CCc1nc(N)nc(N)c1-c1ccc(Cl)cc1 [pyrimethamine],yeast growth (FIG. 7),wild type yeast,but not of the wild type yeast or the folate insensitive yeast
same,yeast growth (FIG. 7),[1],but not of the wild type yeast or the folate insensitive yeast
same,yeast growth (FIG. 7),[2],does inhibit yeast growth
